Publication PMC3076448

The chains behind the UniProt entries cited, without tags or fusion partners.
UniProt P20226, whole entry: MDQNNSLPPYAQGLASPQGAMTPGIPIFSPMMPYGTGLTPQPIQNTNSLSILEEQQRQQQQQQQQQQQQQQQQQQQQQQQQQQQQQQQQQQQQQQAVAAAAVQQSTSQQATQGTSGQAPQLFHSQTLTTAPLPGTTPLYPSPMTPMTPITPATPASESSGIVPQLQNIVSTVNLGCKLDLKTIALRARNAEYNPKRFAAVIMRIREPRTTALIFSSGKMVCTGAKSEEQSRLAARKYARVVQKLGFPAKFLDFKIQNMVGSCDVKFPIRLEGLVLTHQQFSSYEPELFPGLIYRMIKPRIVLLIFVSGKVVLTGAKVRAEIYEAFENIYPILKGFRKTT

Experiments:
TBP + TFIIB [1] = test: AFM; conditions: preferential binding at TATA box; AFM imaging buffers: A 10 mM Tris-HCl, 0.1 mM NiCl2, pH 7.9; B 10 mM Tris-HCl, 1 mM NiCl2, pH 7.9; recombinant protein; probe letters rebuilt from the primers and the genome
TBP (human) = TBP (human) (UniProt P20226); test: EMSA; conditions: no TFIIB, less intense band; AFM imaging buffers: A 10 mM Tris-HCl, 0.1 mM NiCl2, pH 7.9; B 10 mM Tris-HCl, 1 mM NiCl2, pH 7.9; recombinant protein; residues 1-339; probe letters rebuilt from the primers and the genome
TBP + TFIIB [2] = test: EMSA; conditions: AFM imaging buffers: A 10 mM Tris-HCl, 0.1 mM NiCl2, pH 7.9; B 10 mM Tris-HCl, 1 mM NiCl2, pH 7.9; recombinant protein; probe letters rebuilt from the primers and the genome

Measured: binding result

GGATCCTTCAGTTCGCCGCATCCTTCTCCATTATTTGAATATTGGAGGCTGCCTGACCAGAATCTTGTCAGGACTTTGCTCCTTCATCCCAGGTGGTCCCGGCTGACTCCTGAGGACGTTACAGCCCTGAGGGGAGGACTCAGCTTATGAAGTGCTGGGTGAGACCACTGCCAAGAAGTGCTTGCTCACCCTACCTTCAACGGCAGGGGAATCTCCCTCTCCTTTTATGGGCGTAGCTGAAGAAAGGATTCATAAATGAAGTTCAATCCTTCTCATCAACCCCAGCCCACACCTCCAGCAATTGAACTTGAAAAAAAAAACCTGGTTTGAAAAATTACCGCAAACTATATTGTCATCAAAAAAAAAAAAAAAAAAAAACACTTCCTATATTTGAGATGAGAGAAGAGAGTGCTAGGCAGTTTCCTGGCTGAACACGCCAGCCCAATACTTAAAGAGAGCAACTCCTGACTCCGATAGAGACTGGATGGACCCACAAGGGTGACAGCCCAGGCGGACCGATCTTCCCATCCCACATCCTCCGGCGCGATGCCAAAAAGAGGCTGAC (double strand) [563 bp IL2RA fragment]
binds: TBP + TFIIB [1] | TBP (human) | TBP + TFIIB [2]
